# PubChem BioAssay AID1259424, University of Nebraska Medical Center, 2018
# Screen: 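Seek colon cancer survival genes behaving like KSR1, using a six-gene signature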 (primary screen)
# Cell system: human HCT116 colon cancer cells
# Reagents: siRNA pool against human genes, 50 nM
# Read-out: 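Log2 levels of six mRNAs (branched-DNA multiplex), adjusted by two reference genes and the non-targeting median, then scored against the average KSR1 knockdown pattern as Pearson r and euclidean distance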
# Reading the numbers: mean correlation with KSR1 profile and KSR1 correlation: higher = expression change more like KSR1 knockdown; mean distance from KSR1 profile: higher = expression change less like KSR1 knockdown
# In all, the deposit lists about 14,000 reagents; shown is a random part of them. 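Higher correlation or smaller distance means closer resemblance to KSR1 loss; control wells, including KSR1 knockdowns, recur on many plates.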 Not given: the time to read-out.
target,mean correlation with KSR1 profile,mean distance from KSR1 profile,"KSR1 correlation, replicate 1","KSR1 correlation, replicate 2","KSR1 correlation, replicate 3"
PCOLCE2 (procollagen C-endopeptidase enhancer 2),-0.317,2.48,-0.252,-0.516,-0.512
SCGB2A2 (secretoglobin family 2A member 2),0.483,1.7,0.22,0.387,0.569
ATP5MG (ATP synthase membrane subunit g),-0.322,2.11,-0.13,-0.503,-0.379
RGS22 (regulator of G protein signaling 22),-0.459,3.31,-0.416,-0.518,-0.277
COX7B (cytochrome c oxidase subunit 7B),-0.157,2.12,-0.0825,-0.348,-0.153
MAB21L4 (mab-21 like 4),0.0604,1.98,0.0852,0.214,0.0252
KLF13 (KLF transcription factor 13),0.635,1.28,0.794,0.864,0.0801
PRB1 (proline rich protein BstNI subfamily 1),-0.125,1.62,-0.112,-0.232,-0.213
ABITRAM (actin binding transcription modulator),-0.0845,1.12,-0.147,-0.187,-0.00773
ARHGAP9 (Rho GTPase activating protein 9),-0.558,3.77,-0.439,-0.578,-0.663
CELP (carboxyl ester lipase pseudogene),-0.0161,2.04,0.106,-0.0196,-0.318
CLDN16 (claudin 16),0.301,1.4,0.17,0.436,0.27
XCL1 (X-C motif chemokine ligand 1),-0.252,3.4,0.0481,-0.491,-0.365
PLEKHG2 (pleckstrin homology and RhoGEF domain containing G2),-0.426,1.48,-0.394,-0.298,-0.634
MANBAL (mannosidase beta like),-0.463,2.65,-0.344,-0.504,-0.284
KCNAB2,-0.929,2.57,-0.959,-0.764,-0.749
SNRNP70 (small nuclear ribonucleoprotein U1 subunit 70),-0.416,2.94,-0.313,-0.513,-0.382
ATP10D (ATPase phospholipid transporting 10D (putative)),0.0935,1.23,0.477,-0.061,0.0606
MRPS30 (mitochondrial ribosomal protein S30),0.302,2.71,0.248,0.341,0.254
CALML3 (calmodulin like 3),-0.313,4.46,-0.189,-0.295,-0.445

Quoted from the entries so far (5 entries):
target,mean correlation with KSR1 profile,mean distance from KSR1 profile,"KSR1 correlation, replicate 1","KSR1 correlation, replicate 2","KSR1 correlation, replicate 3"
ATP5MG (ATP synthase membrane subunit g),-0.322,2.11,-0.13,-0.503,-0.379
RGS22 (regulator of G protein signaling 22),-0.459,3.31,-0.416,-0.518,-0.277
COX7B (cytochrome c oxidase subunit 7B),-0.157,2.12,-0.0825,-0.348,-0.153
MAB21L4 (mab-21 like 4),0.0604,1.98,0.0852,0.214,0.0252
KLF13 (KLF transcription factor 13),0.635,1.28,0.794,0.864,0.0801

The results go on:
target,mean correlation with KSR1 profile,mean distance from KSR1 profile,"KSR1 correlation, replicate 1","KSR1 correlation, replicate 2","KSR1 correlation, replicate 3"
CCR8 (C-C motif chemokine receptor 8),0.744,1.18,0.578,0.846,0.706
MCM7 (minichromosome maintenance complex component 7),0.356,1.03,0.533,0.219,-0.311
GAS6 (growth arrest specific 6),-0.555,4.6,-0.473,-0.537,-0.609
VPREB3 (V-set pre-B cell surrogate light chain 3),0.2,3.03,0.11,0.273,0.104
SH3BP4 (SH3 domain binding protein 4),0.356,2.24,0.315,0.399,0.3
TRPV3,-0.525,3.91,-0.465,-0.608,-0.654
THAP9 (THAP domain containing 9),0.443,1.45,0.461,0.66,0.226
TEC (tec protein tyrosine kinase),0.673,1.5,0.855,0.584,0.141
RAC2 (Rac family small GTPase 2),-0.246,3.74,-0.294,-0.281,-0.226
PHB1 (prohibitin 1),0.165,2.25,0.301,0.162,0.181
FUBP1 (far upstream element binding protein 1),0.205,2.17,0.461,0.174,-0.0258
GNLY (granulysin),-0.07,2.74,-0.205,-0.225,0.00338
FRMD8P1 (FERM domain containing 8 pseudogene 1),0.0496,2.47,-0.145,0.098,0.155
PRMT7 (protein arginine methyltransferase 7),-0.354,2.01,-0.528,-0.526,-0.126
